Experimental data taken from PubChem BioAssay AID330 (DTP/NCI, 2004).
The list does not hold the whole screen: it is rich in T/C values a quarter to a half above the control, in often repeated tests (any T/C) and in doses without a T/C. Other doses and runs of a compound stand elsewhere. T/C: endpoint of the treated group in % of that of the vehicle group. Some doses have a count of surviving animals in place of a T/C: the source holds a T/C of zero for them, seemingly a mark for toxic or unscored doses. Some survivor counts are full or nearly so, which does not show that the dose was tolerated: survival well below the control is almost never listed, so the zero probably covers shortened survival too. Counts of survivors are from the toxicity check (mostly the fifth day) where no day follows; animals may have died later. Schedule codes are those of the source, read here as Q, the interval in days (D) or hours (H), X, the number of doses. Some doses were run more than once; their values stand side by side, smallest first. For survival time, the PubChem record calls one and a half times the control and up active, and a quarter to a half above the control has no call in these data; cut-offs in other NCI protocols can differ. Some T/C values carry the count of animals alive at the toxicity check (mostly the fifth day); without a count, all were alive then.

Tested on: P388 leukemia ip, CD2F1 mice, survival T/C
Experiment: NCI In Vivo Anticancer Drug Screen. Data for tumor model P388 Leukemia (intraperitoneal) in CD2F1 (CDF1) mice
Conditions: T/C endpoint: median survival time, higher T/C = longer survival
[1] = dose: 120.0 mg/kg/injection, schedule: Q01DX005 (ip), vehicle: saline with Tween-80
[2] = dose: 240.0 mg/kg/injection, schedule: Q01DX005 (ip), vehicle: saline with Tween-80
[3] = dose: 50.0 mg/kg/injection, schedule: Q01DX009 (ip), vehicle: saline with Tween-80
[4] = dose: 100.0 mg/kg/injection, schedule: Q01DX009 (ip), vehicle: saline with Tween-80
[5] = dose: 200.0 mg/kg/injection, schedule: Q01DX009 (ip), vehicle: saline with Tween-80
[6] = dose: 50.0 mg/kg/injection, schedule: Q01DX009 (ip), vehicle: saline
[7] = dose: 100.0 mg/kg/injection, schedule: Q01DX009 (ip), vehicle: saline
[8] = dose: 200.0 mg/kg/injection, schedule: Q01DX009 (ip), vehicle: saline
[9] = dose: 200.0 mg/kg/injection, schedule: Q04DX003 (ip), vehicle: saline with Tween-80
[10] = dose: 60.0 mg/kg/injection, schedule: Q01DX005 (ip), vehicle: saline with Tween-80
[11] = dose: 25.0 mg/kg/injection, schedule: Q01DX009 (ip), vehicle: saline with Tween-80
[12] = dose: 100.0 mg/kg/injection, schedule: Q01DX005 (ip), vehicle: Klucel (hydroxypropylcellulose) (HPC)
[13] = dose: 200.0 mg/kg/injection, schedule: Q01DX005 (ip), vehicle: Klucel (hydroxypropylcellulose) (HPC)
[14] = dose: 400.0 mg/kg/injection, schedule: Q04DX003 (ip), vehicle: Klucel (hydroxypropylcellulose) (HPC)
[15] = dose: 200.0 mg/kg/injection, schedule: Q01DX005 (ip), vehicle: saline
[16] = dose: 400.0 mg/kg/injection, schedule: Q04DX002 (ip), vehicle: suspension in saline

## COc1cccc2c1C(=O)c1c(O)c3c(c(O)c1C2=O)C[C@@](O)(/C(C)=N/NC(=O)c1ccc(N(C)C)cc1)C[C@@H]3OC1CC(N)C(O)C(C)O1 (stereo partly drawn)
dose: 0.25 mg/kg/injection, schedule: Q01DX009 (ip), vehicle: water
  T/C: 133 % of control
dose: 2.5 mg/kg/injection, schedule: Q01DX001 (ip), vehicle: water
  T/C: 138 % of control
dose: 5.0 mg/kg/injection, schedule: Q01DX001 (ip), vehicle: water
  T/C: 142 % of control
dose: 8.0 mg/kg/injection, schedule: Q01DX009 (ip), vehicle: water
  T/C: 136 % of control
dose: 16.0 mg/kg/injection, schedule: Q01DX009 (ip), vehicle: water
  survivor count: 6 of 6
dose: 80.0 mg/kg/injection, schedule: Q01DX001 (ip), vehicle: water
  survivor count: 3 of 6

## O=C(O)c1cc(Br)cc(Br)c1O.O=C(O)c1cc(Br)cc(Br)c1O.[Cu]
[1]
  survivor count: 1 of 6
[2]
  survivor count: 0 of 6

## CC(=O)CC(C)(C)c1ccccc1
dose: 600.0 mg/kg/injection, schedule: Q01DX009 (ip), vehicle: saline with Tween-80
  survivor count: 2 of 6

## Clc1ccccc1C=Nc1ccccc1
[3]
  T/C: 131 % of control
[4]
  T/C: 125 [5 of 6 alive] and 138 % of control
[5]
  survivor count: 1 of 6 and 2 of 6

## Nc1ncnc2c1cnn2CCCl
[3]
  survivor count: 6 of 6
[4]
  survivor count: 6 of 6
[5]
  survivor count: 0 of 6

## Cc1c2cc(Cl)c3ccccc3c2c[n+]2ccccc12
dose: 25.0 mg/kg/injection, schedule: Q01DX009 (ip), vehicle: saline
  T/C: 125 % of control
[6]
  survivor count: 6 of 6
[7]
  survivor count: 6 of 6
[8]
  survivor count: 3 of 6
[9]
  T/C: 127 % of control
dose: 400.0 mg/kg/injection, schedule: Q01DX009 (ip), vehicle: saline
  survivor count: 6 of 6

## O=[N+]([O-])c1ccc(N/N=C\C2OC3O[C@@H](C(Cl)(Cl)Cl)OC3C2O)c([N+](=O)[O-])c1 (stereo partly drawn)
dose: 100.0 mg/kg/injection, schedule: Q04DX002 (ip), vehicle: saline with Tween-80
  survivor count: 6 of 6
dose: 400.0 mg/kg/injection, schedule: Q04DX002 (ip), vehicle: saline with Tween-80
  survivor count: 6 of 6

## O=S1(=O)C=C(c2cccs2)C1
[9]
  survivor count: 6 of 6
dose: 400.0 mg/kg/injection, schedule: Q04DX003 (ip), vehicle: saline with Tween-80
  survivor count: 4 of 6

## COc1ccc2c(c1)OC(C)(C)C(c1ccccc1)=C2c1ccc2c(c1)NCCO2
[10]
  survivor count: 6 of 6
[1]
  survivor count: 6 of 6
[2]
  survivor count: 6 of 6

## O=[N+]([O-])c1ccc(/C=C(/c2ccc([N+](=O)[O-])o2)S(=O)(=O)C(Cl)(Cl)Cl)cc1
dose: 50.0 mg/kg/injection, schedule: Q01DX009 (ip), vehicle: suspension in saline
  survivor count: 4 of 6
dose: 200.0 mg/kg/injection, schedule: Q01DX009 (ip), vehicle: suspension in saline
  survivor count: 6 of 6

## Br[C](Br)(Br)[Hg][c]1ccccc1
[11]
  survivor count: 4 of 6

## CCOc1ccc(C2=C(O)/C(=C(\C(=O)Nc3nccs3)c3ccc(OCC)cc3)OC2=O)cc1
[12]
  survivor count: 1 of 6
[13]
  survivor count: 0 of 6

## CC(C)OC(=S)S.[Pb]
dose: 16.5 mg/kg/injection, schedule: Q01DX009 (ip), vehicle: saline with Tween-80
  T/C: 147 % of control
[11]
  T/C: 133 and 146 % of control [5 of 6 alive]
dose: 37.5 mg/kg/injection, schedule: Q01DX009 (ip), vehicle: saline with Tween-80
  T/C: 128 % of control [5 of 6 alive]
[3]
  survivor count: 3 of 6
[4]
  survivor count: 0 of 6
[5]
  survivor count: 4 of 6

## CN1CCc2cc3c(cc2[C@H]1[C@@H]1OC(=O)c2c1ccc1c2OCO1)OCO3
dose: 25.0 mg/kg/injection, schedule: Q01DX005 (ip), vehicle: saline with Tween-80
  survivor count: 0 of 6
dose: 50.0 mg/kg/injection, schedule: Q01DX005 (ip), vehicle: saline with Tween-80
  survivor count: 1 of 5
dose: 100.0 mg/kg/injection, schedule: Q01DX005 (ip), vehicle: saline with Tween-80
  survivor count: 0 of 5
dose: 200.0 mg/kg/injection, schedule: Q01DX005 (ip), vehicle: saline with Tween-80
  survivor count: 0 of 5

## CCOP(=O)(O)C1CCCC(C)[N-]1.CCOP(=O)(O)C1CCCC(C)[N-]1.[Fe+2] (stereo not drawn)
dose: 200.0 mg/kg/injection, schedule: Q04DX003 (ip), vehicle: Klucel (hydroxypropylcellulose) (HPC)
  survivor count: 5 of 6
[14]
  survivor count: 6 of 6

## O=[N+]([O-])c1ccc(Sc2nccc(Cl)n2)c([N+](=O)[O-])c1
[6]
  survivor count: 5 of 6

## CN(C)c1ccc(/C=C/c2ccncc2)cc1
dose: 12.5 mg/kg/injection, schedule: Q01DX009 (ip), vehicle: saline with Tween-80
  survivor count: 0 of 6

## CCOC(=O)/N=[N+](\[O-])c1cccc(Cl)c1
dose: 400.0 mg/kg/injection, schedule: Q01DX001 (ip), vehicle: saline with Tween-80
  survivor count: 0 of 6

## COC(=O)c1nc(=S)[nH]c(C(=O)OC)c1C(=O)c1cccc(O)c1
dose: 240.0 mg/kg/injection, schedule: Q01DX005 (ip), vehicle: suspension in saline
  survivor count: 2 of 6

## CC(=O)Oc1c(C)[nH]ccc1=O
[7]
  T/C: 127 and 132 % of control
[8]
  T/C: 127 and 141 % of control
dose: 800.0 mg/kg/injection, schedule: Q01DX009 (ip), vehicle: saline
  T/C: 134 % of control

## CC1OP(=S)(S)OC1C (stereo not drawn)
[15]
  survivor count: 4 of 5

## COc1c2c(c(OC)c3c1C(=O)C(=O)C=C3O)OCO2
dose: 240.0 mg/kg/injection, schedule: Q01DX005 (ip), vehicle: Klucel (hydroxypropylcellulose) (HPC)
  survivor count: 0 of 6

## CN(C)C1CCc2ccccc2C1OC(=O)/C=C/c1ccccc1 (stereo not drawn)
[5]
  survivor count: 2 of 6

## COC1=C(N)C(=O)c2ncccc2C1=O
dose: 2.0 mg/kg/injection, schedule: Q01DX009 (ip), vehicle: DMSO
  survivor count: 6 of 6
[11]
  survivor count: 2 of 6
dose: 32.0 mg/kg/injection, schedule: Q01DX009 (ip), vehicle: DMSO
  survivor count: 0 of 6

## O=c1oc(-c2ccccc2)nc2c1sc1nc(-c3ccccc3)oc(=O)c12
dose: 1.56 mg/kg/injection, schedule: Q01DX005 (ip), vehicle: Klucel (hydroxypropylcellulose) (HPC)
  survivor count: 5 of 6 and 6 of 6
dose: 12.5 mg/kg/injection, schedule: Q01DX005 (ip), vehicle: Klucel (hydroxypropylcellulose) (HPC)
  survivor count: 6 of 6
dose: 25.0 mg/kg/injection, schedule: Q01DX005 (ip), vehicle: Klucel (hydroxypropylcellulose) (HPC)
  survivor count: 5 of 6
[12]
  survivor count: 6 of 6
[13]
  survivor count: 4 of 6

## Cn1c(=O)c2snnc2n(C)c1=O
[14]
  survivor count: 0 of 6

## CC(Nc1nncs1)Nc1nncs1
[10]
  T/C: 126 and 128 % of control

## Cc1cc2nc3c(=O)[nH]c(=O)nc-3n(CC(O)C(O)C(O)CO)c2cc1C (stereo not drawn)
[5]
  survivor count: 4 of 6 and 6 of 6

## COc1cc2c(cc1OC)[C@H]1[C@H](C)c3ccc4c(c3CN1CC2)OCO4
dose: 100.0 mg/kg/injection, schedule: Q04DX002 (ip), vehicle: Klucel (hydroxypropylcellulose) (HPC)
  survivor count: 4 of 5
dose: 200.0 mg/kg/injection, schedule: Q04DX002 (ip), vehicle: Klucel (hydroxypropylcellulose) (HPC)
  survivor count: 0 of 5

## c1ccc(CN2CSC3CCCCC32)cc1 (stereo not drawn)
[15]
  T/C: 128 % of control

## CC1CCCC(C2CC3CCCCC3C(N)[N-]2)[N-]1.CC1CCCC(C2CC3CCCCC3C(N)[N-]2)[N-]1.O=[N+]([O-])O.[Cu+2] (stereo not drawn)
[16]
  survivor count: 0 of 6

## N[C@@H](Cc1c[nH]c2ccccc12)C(=O)Nc1nncs1
dose: 200.0 mg/kg/injection, schedule: Q04DX002 (ip), vehicle: saline
  T/C: 133 % of control
dose: 400.0 mg/kg/injection, schedule: Q04DX002 (ip), vehicle: saline
  T/C: 138 % of control
[16]
  T/C: 142 % of control
